According to the supplement of paper PMC4683952:
The list shows a part of the results. No stated cut-off is given here; in the data, active = 2 or more and inactive = the rest. Single values are uncertain here, since repeats match poorly.

tested on: Lgr5 (MarsCy1-Lgr5-EGFP, U2OS); experiment: cell-surface Lgr5 expression (SCi1 fluorescence, background-subtracted) relative to WT DMSO (fold of DMSO control); higher = more Lgr5 at the plasma membrane; conditions: U2OS MarsCy1-Lgr5-EGFP stable; treatment time: overnight; library: ActiProbe-5K (TimTec); 25 µM

cell-surface Lgr5 expression, inactive:
O=S(=O)(Nc1ccc(Cl)cn1)c1cccs1 1.07
COc1ccc(OCCSc2nc3c(N)ncnc3[nH]2)cc1 1.28
O=[N+]([O-])c1ccc2[nH]c3c(c2c1)CCCC3 1.59
CSc1nc2cc(S(=O)(=O)N3CCOCC3)ccc2s1 1.11
c1coc(C2OCC3(CO2)COC(c2ccco2)OC3)c1 (configuration not stated) 1.22
CC1=C(C)Cn2c(=S)c3ccccc3c(=S)n2C1 1.14
Cc1sc(/C=C(\C#N)C(N)=S)cc1[N+](=O)[O-] 1.68
c1ccc(-c2nnc3sc(C4CCCCC4)nn23)nc1 1.12
FC(F)(F)C1=Nc2ccccc2N(c2ccc(Cl)c(Cl)c2)C1 1.01
OCCn1cc(Br)cn1 1.07
O=c1oc(-c2ccco2)nc2sc3c(c12)CCCC3 1.2
Nc1nn2c(=O)c3[nH]c4ccc(F)cc4c3nc2s1 1.72
O=[N+]([O-])c1cc(Sc2nc3ccccc3o2)cc2nsnc12 1.77
COc1cccc(OC)c1OCc1nc(N)nc(N(C)C)n1 1.3
O=C(O)c1n[nH]cc1[N+](=O)[O-] 1.32
CN1CCN(CC(C)(C)N)CC1 1.12
O=C1c2ccccc2C(=O)N1CCn1c2ccccc2c2nc3ccccc3nc21 1.24
Br.CN1C/C(=C\c2ccco2)C(=O)/C(=C/c2ccco2)C1 0.394
Cc1ccc(C(=O)O)c(=O)[nH]1 1.46
CN1C(=O)/C(=C2\S/C(=N/c3ccccc3)N(c3ccccc3)C2=O)c2ccccc21 1.35
Cc1c(-c2cccs2)n[nH]c1N 1.01
COc1ccc(S(=O)(=O)Oc2ccc(/N=C\c3cc(Br)ccc3OC)cc2)cc1 1.37
CSc1[nH]c(=O)c([N+](=O)[O-])cc1C#N 1.03
N#CCC12CC3CC(CC(C3)C1)C2 1.23
c1ccc(C2=NN3COc4ccccc4C3C2)cc1 (configuration not stated) 0.707
C#CCOc1cccc(/C=N\N=C(\N)c2nonc2N)c1 1.03
N#Cc1c[nH]c2ccc(F)cc12 0.81
CCn1c2ccccc2c2cc(C3Oc4ccccc4C4CC(c5ccccc5)=NN43)ccc21 (configuration not stated) 0.867
Sc1nnc(-c2cccs2)n1/N=C/c1ccco1 0.761
Cc1nc2sc3c(c2c(=O)o1)CCC(C)C3 (configuration not stated) 1.08
Brc1ccc(-c2nc3sc(-c4ccc(Br)cc4)nc3s2)cc1 1.23
Oc1ccc2ccccc2c1C1Nc2cccc3cccc(c23)N1 0.889
Cc1ccc2nc(Cl)cc(C)c2c1 1.26
CC1(C)CC(N2CN(C3CC(C)(C)NC(C)(C)C3)CN(C3CC(C)(C)NC(C)(C)C3)C2)CC(C)(C)N1 1.19
CCOCc1nnc(NC(=O)C(C)(C)C)s1 1.3
CCCCCCCCCCCCn1c(SCCC)nc2c1c(=O)[nH]c(=O)n2C 1.36
Cc1cnnn1-c1nonc1-n1cccc1 0.947
CC1(C)C2CCC1(C)C(NC(=O)CCOCCC(N)=O)C2 (configuration not stated) 1.65
CC1CC(=O)C2=C(C1)OC(N)=C(C#N)C21CCC2(CC1)OCCO2 (configuration not stated) 1.03
Cn1cccc1/C=N/NC(=O)c1ccco1 1.2
O=[N+]([O-])c1ccc(/C=N\n2cnnc2)s1 1.96
Cc1cc(O)n2nc(N)nc2n1 1.4
O=C1c2ccccc2C2(O)N(c3ccccc3)C(=S)N(c3ccccc3)C12O (configuration not stated) 0.874
O=C(O)c1nn(Cn2cccn2)cc1Cl 1.07
CCOC(=O)C/C(C)=N/Nc1nc2sc(C)c(C)c2c(=O)[nH]1 0.881
C(=N/n1cnnc1)/c1ccco1 1.05
Nc1ccc(N2CCOCC2)c(Br)c1 1.18
Cc1nc2sc3c(O)nc(=O)[nH]c3c2c(C)c1C 1.26
CC1(C)OC(=O)N2c3ccccc3NC21C (configuration not stated) 0.799
CC1CCC(C(C)C)C(OCC(O)CNC(C)(C)C)C1 (configuration not stated) 1.16
Nc1nc2ccc(OC(F)(F)F)cc2s1 1.31
c1ccc(N/N=C2/C/C(=N\Nc3ccccc3)c3ccccc32)cc1 1.06
N#Cc1ccc(C(O)c2ccc(F)cc2)c(CO)c1 (configuration not stated) 1.42
Cc1nn(CC#N)c(C)c1Cl 1.2
N=C1NC(=O)/C(=C\c2ccco2)S1 1.18
Nc1nnc(CS(=O)(=O)CC(=O)O)s1 1.17
N#CC1=C(N)SC(N)=C(C#N)C1c1ccc(F)c(Br)c1 1.22
Nc1cc2[nH]c(=O)[nH]c2cc1N 1.16
CN(CC12CC3CC(CC(C3)C1)C2)S(=O)(=O)N1CCCCC1 0.917
O=c1c2ccccc2oc2cccnc12 1.01
COCc1c(C)cc(C)c(/C=N\O)c1C 1.15
Cc1ccc(C2=NNC(C)(c3ccc(C4CCCCC4)cc3)S2)cc1 (configuration not stated) 0.355
C[n+]1noc([O-])c1-c1ccccc1 1.09
OC(Cn1c2ccccc2c2ccccc21)C[n+]1cccc2ccccc21 (configuration not stated) 1.65
Cc1sc(N)c(C(N)=O)c1C 1.18
CCn1cc(Cn2cc(N)cn2)cn1 1.3
N#Cc1cc2n[nH]nc2cc1C#N 1.02
COc1cccnc1Br 1.03
O=S(=O)([O-])c1cc(-c2nnc(-c3ccccn3)nc2-c2ccc(S(=O)(=O)[O-])o2)co1 0.946
Cc1ccc(-c2cn3cccc(C)c3n2)cc1 0.887
C=CCn1c(-c2ccccc2Br)n[nH]c1=S 1.11
Nc1ccc2nn(-c3ccc(Cl)cc3)nc2c1 0.928
CC1CCN(C(=S)NC2CCCCC2)CC1 1.25
c1ccc(-c2ccc(-c3ccccn3)nn2)nc1 0.56
O=C(NC1C2CC3CC(C2)CC1C3)c1cnccn1 (configuration not stated) 1.13
COC(=O)N1C(=O)OC2CSCC21 (configuration not stated) 1.18
O=C1c2ccccc2-c2nn3nnnc3nc21 1.54
COC(=O)c1c(NC(=O)CCCC(=O)O)sc2c1CCC2 1.04
FC(F)(F)COc1nc(NCCOC23CC4CC(CC(C4)C2)C3)nc(N2CCCCC2)n1 0.871
O=C1NC(=O)C(c2ccccc2)(c2ccccc2)N1 1.12
CCC(C)(C#CCN1CCCC1)OCCC#N (configuration not stated) 1.2
Cc1ccc(S(=O)(=O)N2CCN(S(C)(=O)=O)C2C)cc1 (configuration not stated) 1.27
Cn1c(COc2ccccc2)nn(CN2CCC3(CC2)OCCO3)c1=S 1.43
Cc1sc2ncnc(Cl)c2c1C 1.39
C=CCN(CC=C)S(=O)(=O)c1ccc(OC)cc1 1.08
O=[N+]([O-])c1c(Cl)ncnc1Cl 1.16
NC(=O)c1nc(S)n(CC2CCCO2)c1N (configuration not stated) 1.23
Nc1n/c(=N/c2ccccc2)ss1 0.922
C/C(O)=C1/C(=O)NC(=O)SC1=O 1.41
CS(=O)(=O)N1CCc2ccccc2C1 1.06
CC1(C)CC2(CC(C)(C)N1)OC(=O)N(CCO)C2(C)O (configuration not stated) 1.09
Brc1cccc(C2=Nn3c(nnc3-c3ccccn3)SC2)c1 1.46
CCOc1ccc2c(c1)-c1c(ssc1=S)C(C)(C)N2C 1.26
O=S1(=O)N=C(N/N=C/c2cc(Cl)ccc2O)c2ccccc21 0.817
C#CCN1C(=O)S/C(=C\c2ccc(N3CCOCC3)o2)C1=O 0.992
CCOC(=O)c1sc(N2N=C(C)/C(=C/c3ccc(C)o3)C2=O)nc1C 1.1
Brc1coc2ccccc12 1.11
Clc1cnc2nc(-c3ccccn3)[nH]c2c1 0.934
N#CCNS(=O)(=O)c1cc(Cl)ccc1Cl 1.18
Nc1nc(-c2ccncc2)n[nH]1 0.857
Cc1cc2nc(S)[nH]c2cc1C 1.11
Cc1c(C#N)c(N)n(Cc2ccco2)c1C 1.68
CC(=O)CN1C(Br)=NC2C1C(=O)N(C)C(=O)N2C (configuration not stated) 0.986
O=C(c1ccc(-c2cccs2)[nH]1)C(F)(F)F 1.12
CC(C)(C)C1=NOC(O)(C(F)(F)F)C1 (configuration not stated) 1.06
COc1cc(-c2nnc(SCc3ccon3)o2)cc(OC)c1OC 1.75
Cc1ccc(/C=N/n2c(C)cc(C)c(C#N)c2=O)s1 0.973
Cc1oc(C(=O)O)cc1CSC(C)C(=O)O (configuration not stated) 1.33
C#Cc1ccc(-c2ccc(CCCCCCCCC)cc2)cc1 1.6
O=C(Nc1ccc2c(c1)OCO2)C(=O)NC1CC1 1.05
Cn1c(C(C)(C)C)nc(N)nc1=O 1.05
N#CC1=C(N)C(C#N)(C#N)[C@H](c2ccc(F)cc2)[C@H]2COCC=C12 0.969
